Test results: publication PMC2363545
Results are given in words; binding and its absence hold for the method and conditions named. Tags and fused reporters may be left off the sequences shown.

Molecular target: IGF2R domains 10-13
Assay: SPR; BIAcore; who was immobilised, buffer, pH and temperature not stated (abstract P25)

B1: -glucuronidase (beta-glucuronidase; the Greek letter is lost in the text shown) (enzyme, UniProt P08236 23-651)
chain: LQGGMLYPQESPSRECKELDGLWSFRADFSDNRRRGFEEQWYRRPLWESGPTVDMPVPSSFNDISQDWRLRHFVGWVWYEREVILPERWTQDLRTRVVLRIGSAHSYAIVWVNGVDTLEHEGGYLPFEADISNLVQVGPLPSRLRITIAINNTLTPTTLPPGTIQYLTDTSKYPKGYFVQNTYFDFFNYAGLQRSVLLYTTPTTYIDDITVTTSVEQDSGLVNYQISVKGSNLFKLEVRLLDAENKVVANGTGTQGQLKVPGVSLWWPYLMHERPAYLYSLEVQLTAQTSLGPVSDFYTLPVGIRTVAVTKSQFLINGKPFYFHGVNKHEDADIRGKGFDWPLLVKDFNLLRWLGANAFRTSHYPYAEEVMQMCDRYGIVVIDECPGVGLALPQFFNNVSLHHHMQVMEEVVRRDKNHPAVVMWSVANEPASHLESAGYYLKMVIAHTKSLDPSRPVTFVSNSNYAADKGAPYVDVICLNSYYSWYHDYGHLELIQLQLATQFENWYKKYQKPIIQSEYGAETIAGFHQDPPLMFTEEYQKSLLEQYHLGLDQKRRKYVVGELIWNFADFMTEQSPTRVLGNKKGIFTRQRQPKSAAFLLRERYWKIANETRYPHSVAKSQCLENSLFT
binding: no binding
